Results are given in words; binding and its absence hold for the method and conditions named. Tags and fused reporters may be left off the sequences shown.
Legend:
Experiment in all cases: two-hybrid; […] system; bait as GAL4 DNA binding domain fusion in pAS2, prey as GAL4 activation domain fusion in pACT2, yeast PJ649A cells; interaction shown by growth on plates lacking adenine, or histidine and adenine
[1] = target: T1, DRB2 (yeast two-hybrid fusion) (Arabidopsis) (UniProt Q9SKN2)
T1 sequence: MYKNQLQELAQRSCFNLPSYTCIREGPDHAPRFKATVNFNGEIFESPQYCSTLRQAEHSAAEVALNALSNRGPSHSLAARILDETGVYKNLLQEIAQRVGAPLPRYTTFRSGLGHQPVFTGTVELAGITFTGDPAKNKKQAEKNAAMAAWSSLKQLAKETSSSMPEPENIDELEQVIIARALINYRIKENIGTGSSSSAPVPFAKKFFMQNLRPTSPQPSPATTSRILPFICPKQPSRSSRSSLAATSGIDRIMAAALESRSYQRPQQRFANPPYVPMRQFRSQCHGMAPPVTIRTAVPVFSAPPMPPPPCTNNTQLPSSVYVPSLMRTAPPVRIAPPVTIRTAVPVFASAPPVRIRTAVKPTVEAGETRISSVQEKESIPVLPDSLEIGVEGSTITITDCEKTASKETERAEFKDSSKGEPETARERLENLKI

[2] = target: T2, DRB3 (yeast two-hybrid fusion) (Arabidopsis) (UniProt Q9LJF5)
T2 sequence: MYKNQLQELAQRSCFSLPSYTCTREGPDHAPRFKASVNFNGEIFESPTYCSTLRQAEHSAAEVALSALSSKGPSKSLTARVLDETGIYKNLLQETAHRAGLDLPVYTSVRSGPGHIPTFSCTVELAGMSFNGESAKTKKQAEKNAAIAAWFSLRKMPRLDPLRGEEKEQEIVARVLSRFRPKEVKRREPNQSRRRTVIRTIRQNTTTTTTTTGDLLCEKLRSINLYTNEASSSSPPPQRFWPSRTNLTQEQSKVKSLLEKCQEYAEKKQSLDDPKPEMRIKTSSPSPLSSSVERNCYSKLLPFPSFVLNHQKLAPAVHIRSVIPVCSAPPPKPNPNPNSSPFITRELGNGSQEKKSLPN

[3] = target: T3, DRB5 (yeast two-hybrid fusion) (Arabidopsis) (UniProt Q8GY79)
T3 sequence: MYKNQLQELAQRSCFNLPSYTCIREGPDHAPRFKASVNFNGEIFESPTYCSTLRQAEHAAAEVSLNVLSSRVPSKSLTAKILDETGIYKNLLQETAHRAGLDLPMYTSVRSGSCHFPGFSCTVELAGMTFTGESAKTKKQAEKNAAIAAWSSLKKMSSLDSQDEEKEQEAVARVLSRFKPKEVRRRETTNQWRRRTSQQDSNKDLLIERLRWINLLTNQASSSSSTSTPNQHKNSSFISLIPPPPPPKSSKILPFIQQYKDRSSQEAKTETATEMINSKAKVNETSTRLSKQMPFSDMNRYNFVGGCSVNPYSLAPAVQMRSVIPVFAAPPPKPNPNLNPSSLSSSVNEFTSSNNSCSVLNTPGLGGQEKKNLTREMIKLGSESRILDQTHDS

Measured: binding

βC1 protein of TYLCCNB (yeast two-hybrid fusion)
no binding: all assays above
